# These are yes or no findings as the source states them, for the method shown. Binding seen in cells or lysates may run through a third protein. A result given as binding can be weak or reduced; the word gives no strength. Tags and fused reporters may be left off the sequences shown.
# Molecular target: cYFP-6b (Agrobacterium)
# Assay: split reporter; BiFC: nYFP and cYFP fusions coexpressed in microbombarded N. benthamiana leaves, confocal microscopy 48 h later
row,Binder,binding
1,"nYFP-VFP5 (protein, UniProt Q9FFG0 1-248) METTTPQSKSSVSHRPPLGREDWWSEEATATLVEAWGNRYVKLNHGNLRQNDWKDVADAVNSRHGDNSRKKTDLQCKNRVDTLKKKYKTEKAKLSPSTWRFYNRLDVLIGPVVKKSAGGVVKSAPFKNHLNPTGSNSTGSSLEDDDEDDDEVGDWEFVARKHPRVEEVDLSEGSTCRELATAILKFGEVYERIEGKKQQMMIELEKQRMEVTKEVELKRMNMLMEMQLEIEKSKHRKRASASGKKNSH",binds
2,"nYFP-VFP3 (protein, UniProt Q8VZI9 1-249) METTPETQSKTHRLPAGREDWWSEDATATLIEAWGDRYVNLNRGNLRQNDWKEVADAVNSSHGNGRPKTDVQCKNRIDTLKKKYKTEKAKPLSNWCFFDRLDFLIGPVMKKSSGAVVKSALMNPNLNPTGSKSTGSSLDDDDDDDDDDEEDDDDAGDWGFVVRKHRKVEDVDSSEGSAFRELARSILKLGEAFERIEGKKQQMMIELEKQRMEVAKELELQRMNMLMEMQLELEKSKLGKRRAASGKKL",binds

# Reference: publication PMC4646629
